Results are given in words; binding and its absence hold for the method and conditions named. In cells and extracts the contact can be indirect. Some binding calls cover weakened binding; strength is not graded here.
Legend:
GFP2-C-Raf = GFP2-C-Raf (UniProt P04049); assay: co-IP; GFP-Trap agarose pull-down of GFP2-tagged bait from HEK293-EBNA lysates (50 mM Tris pH 7.5, 150 mM NaCl, 0.5% NP-40, 2 mM EDTA, 1 mM DTT), 3 h at room temperature, Western blot
mNG-SPRY2 = mNG-SPRY2 (UniProt O43597); assay: FRET or BRET; BRET in HEK293-EBNA cells, nanoLuc-fused donor (25 ng plasmid, constant) and mNeonGreen-fused acceptor titrated to 1:40 donor:acceptor plasmid ratio; BRETtop; also at fixed ratios with mevastatin, 2-bromopalmitate or AMG510
nL-H-RasG12V = nL-H-RasG12V (UniProt P01112); assay: as above

Amino acid sequences for entries named in this document (tags omitted).
UniProt O43597: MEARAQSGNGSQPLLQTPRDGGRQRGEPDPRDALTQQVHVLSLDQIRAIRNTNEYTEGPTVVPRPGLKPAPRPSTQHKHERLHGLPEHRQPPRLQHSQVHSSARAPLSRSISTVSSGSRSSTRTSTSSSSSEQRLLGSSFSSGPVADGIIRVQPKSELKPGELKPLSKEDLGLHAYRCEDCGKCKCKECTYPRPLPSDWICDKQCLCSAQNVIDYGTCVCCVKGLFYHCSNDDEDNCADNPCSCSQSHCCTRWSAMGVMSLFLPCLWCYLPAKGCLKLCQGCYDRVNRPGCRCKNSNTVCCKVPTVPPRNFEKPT

binding (GFP2-C-Raf)	binding (mNG-SPRY2)	binding (nL-H-RasG12V)	Substance
binds	–	–	SPRY2 (endogenous) (from UniProt O43597 1-315)
–	binds	binds	mNG-SPRY2 (from UniProt O43597 1-315)

Source: PMC12682140
